Values from PubChem BioAssay AID1224827 (NIAID, 2016)
Purpose: 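Confirm genes whose knock-down changes LPS-driven TNF promoter activity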 (follow-up of hits). System: RAW264.7 G9 mouse macrophage reporter clone. Knock-down reagent: single siRNA against mouse genes, 100 nM siRNA. Time to read-out: siRNA for 2 days, then LPS about 16 h. Conditions: bacterial lipopolysaccharide (LPS), 10 ng/ml, cells fixed after overnight (about 16 h) stimulation. Read-out: 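Imaged nuclear TNF reporter intensity, background removed, scaled per plate and to non-targeting control wells, as z-scores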. Direction: TNF reporter z-score, mean and TNF reporter z-score: higher = stronger Tnf promoter reporter signal; gene median z, three same-vendor siRNAs: higher = stronger Tnf reporter signal for the gene. Active means: 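Active siRNA: replicate-mean z-score of 2 or more, or -2 or less; no calls for control wells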.
This is one part, drawn at random, of about 3,800 reagents. About 2,200 of all reagents (57%) were called active. 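Active means a strong reporter change in either direction; calls are per siRNA, not per gene; qiagen siRNAs gave weaker effects.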 Entries without a mark were called inactive. Reagents against one gene are numbered here. Reagent sequences are not shown.

The first 3 records, to show the layout:
gene	reagent no.	TNF reporter z-score, mean	gene median z, three same-vendor siRNAs	TNF reporter z-score, repeat 1	TNF reporter z-score, repeat 2
Cfb (complement factor B)	1	-2.71 (active)	-3.5	-3.28	-2.13
Cfb (complement factor B)	2	-3.52 (active)	-3.5	-3.55	-3.49
Cfb (complement factor B)	3	-4.51 (active)	-3.5	-3.51	-5.51

Main list, from the first entry:
gene	reagent no.	TNF reporter z-score, mean	gene median z, three same-vendor siRNAs	TNF reporter z-score, repeat 1	TNF reporter z-score, repeat 2
Cfb (complement factor B)	1	-2.71 (active)	-3.5	-3.28	-2.13
Cfb (complement factor B)	2	-3.52 (active)	-3.5	-3.55	-3.49
Cfb (complement factor B)	3	-4.51 (active)	-3.5	-3.51	-5.51
Cfb (complement factor B)	4	-0.544	-0.641	-0.671	-0.417
Cfb (complement factor B)	5	-0.686	-0.641	0.381	-1.75
Cfb (complement factor B)	6	-1.46	-0.641	-0.61	-2.31
Man2b2 (mannosidase 2, alpha B2)	1	-2.98 (active)	-3.75	-1.8	-4.16
Man2b2 (mannosidase 2, alpha B2)	2	-3.17 (active)	-3.75	-2.68	-3.66
Man2b2 (mannosidase 2, alpha B2)	3	-4.3 (active)	-3.75	-3.84	-4.76
Man2b2 (mannosidase 2, alpha B2)	4	2.27 (active)	0.0862	4.22	0.324
Man2b2 (mannosidase 2, alpha B2)	5	0.0862	0.0862	-0.0397	0.212
Man2b2 (mannosidase 2, alpha B2)	6	-1.54	0.0862	-0.972	-2.11
Mesp2 (mesoderm posterior 2)	1	-3.29 (active)	-3.29	-3.28	-3.3
Mesp2 (mesoderm posterior 2)	2	-3.47 (active)	-3.29	-2.87	-4.08
Mesp2 (mesoderm posterior 2)	3	-3.84 (active)	-3.29	-4.56	-3.12
Mesp2 (mesoderm posterior 2)	4	-0.887	-2.41	-2.06	0.289
Mesp2 (mesoderm posterior 2)	5	-2.99 (active)	-2.41	-2.13	-3.85
Mesp2 (mesoderm posterior 2)	6	-3.67 (active)	-2.41	-4.65	-2.7
Casp4 (caspase 4, apoptosis-related cysteine peptidase)	1	-1.33	-2.8	-2.91	0.238
Casp4 (caspase 4, apoptosis-related cysteine peptidase)	2	-2.05 (active)	-2.8	-2.7	-1.39
Casp4 (caspase 4, apoptosis-related cysteine peptidase)	3	-6.49 (active)	-2.8	-6.67	-6.3
Casp4 (caspase 4, apoptosis-related cysteine peptidase)	4	0.416	0.416	0.312	0.52
Casp4 (caspase 4, apoptosis-related cysteine peptidase)	5	0.908	0.416	1.84	-0.0261
Casp4 (caspase 4, apoptosis-related cysteine peptidase)	6	0.425	0.416	1.32	-0.471
Cks1b (CDC28 protein kinase 1b)	1	-2.02 (active)	-2.99	-1.69	-2.34
Cks1b (CDC28 protein kinase 1b)	2	-2.74 (active)	-2.99	-3.65	-1.83
Cks1b (CDC28 protein kinase 1b)	3	-4.26 (active)	-2.99	-4.47	-4.05
Cks1b (CDC28 protein kinase 1b)	4	3.47 (active)	-0.0647	6.7	0.246
Cks1b (CDC28 protein kinase 1b)	5	2.04 (active)	-0.0647	4.45	-0.375
Cks1b (CDC28 protein kinase 1b)	6	-1.76	-0.0647	-1.5	-2.02
Pate6 (prostate and testis expressed 6)	1	6.27 (active)	3.76	4.22	8.33
Pate6 (prostate and testis expressed 6)	2	3.99 (active)	3.76	3.3	4.68
Pate6 (prostate and testis expressed 6)	3	-3.92 (active)	3.76	-4.02	-3.83
Pate6 (prostate and testis expressed 6)	4	2.46 (active)	0.652	4.87	0.0509
Pate6 (prostate and testis expressed 6)	5	1.35	0.652	2.9	-0.201
Pate6 (prostate and testis expressed 6)	6	0.191	0.652	1.25	-0.87
Tnfrsf11b	1	0.576	-1.38	0.825	0.328
Tnfrsf11b	2	-1.38	-1.38	-0.785	-1.97
Tnfrsf11b	3	-2.91 (active)	-1.38	-2.63	-3.18
Tnfrsf11b	4	-1.86	-2.91	-1.84	-1.88
Tnfrsf11b	5	-2.91 (active)	-2.91	-2.64	-3.18
Tnfrsf11b	6	-5.01 (active)	-2.91	-5.51	-4.52
Etnppl (ethanolamine phosphate phospholyase)	1	-2.59 (active)	-3.26	-1.91	-3.28
Etnppl (ethanolamine phosphate phospholyase)	2	-2.88 (active)	-3.26	-2.53	-3.24
Etnppl (ethanolamine phosphate phospholyase)	3	-4.63 (active)	-3.26	-4.81	-4.45
Etnppl (ethanolamine phosphate phospholyase)	4	1.63	0.335	2.83	0.437
Etnppl (ethanolamine phosphate phospholyase)	5	1.67	0.335	3.12	0.233
Etnppl (ethanolamine phosphate phospholyase)	6	0.0183	0.335	0.203	-0.167
Spp2 (secreted phosphoprotein 2)	1	-0.303	-3.13	-0.67	0.0641
Spp2 (secreted phosphoprotein 2)	2	-3.13 (active)	-3.13	-3.45	-2.8
Spp2 (secreted phosphoprotein 2)	3	-4.86 (active)	-3.13	-4.65	-5.07
Skint7 (selection and upkeep of intraepithelial T cells 7)	1	10.7 (active)	-2.76	8.85	12.5
Skint7 (selection and upkeep of intraepithelial T cells 7)	2	-3 (active)	-2.76	-3.47	-2.53
Skint7 (selection and upkeep of intraepithelial T cells 7)	3	-3.21 (active)	-2.76	-3.44	-2.99
Skint7 (selection and upkeep of intraepithelial T cells 7)	4	1.53	0.183	2.58	0.49
Skint7 (selection and upkeep of intraepithelial T cells 7)	5	0.746	0.183	1.61	-0.123
Skint7 (selection and upkeep of intraepithelial T cells 7)	6	-3.98 (active)	0.183	-4.45	-3.52
